Values from PubChem BioAssay AID1159584 (Peter MacCallum Cancer Centre, 2016).

- Assay: 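Genes whose loss is lethal only together with E-cadherin loss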 (primary screen)
- Cell system: human MCF10A breast epithelial cells, parental and CDH1-null
- Knock-down reagent: siRNA against human genes
- Measured: 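Cell viability by CellTiter-Glo ATP luminescence, each line scaled to the mean of mock wells across plates, then CDH1-null over parental ratio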
- Direction: CDH1-null / parental viability ratio: higher = CDH1-null cells survive relatively better than parental; CDH1-null viability vs mock: higher = more viable CDH1-null cells; parental viability vs mock: higher = more viable parental cells
This is an unselected part of about 18,000 deposited reagents. The numbers tell different reagents against one gene apart. Not stated in the record: the amount of reagent, the time to read-out.

no.	Target gene	reagent no.	CDH1-null / parental viability ratio	CDH1-null viability vs mock (fraction of mock)	parental viability vs mock (fraction of mock)
1	OTUD5	1	0.98	0.64	0.65
2	VRTN	1	0.98	0.65	0.66
3	LINC02694	1	1.05	0.84	0.8
4	KDSR	1	1.12	0.9	0.8
5	GJA9	1	0.87	0.48	0.55
6	GPX1	1	1.04	0.88	0.85
7	SLC6A2	1	1.04	0.56	0.54
8	NBPF3	1	0.89	0.89	1
9	MAPK1IP1L	1	0.96	1.24	1.29
10	MIEN1	1	0.96	0.81	0.84
11	MEIS1	1	1.04	1.07	1.03
12	GOLPH3	1	1.2	0.36	0.3
13	FASTKD2	1	0.95	0.78	0.82
14	TBC1D25	1	1.11	0.42	0.38
15	CCSER2	1	0.89	0.83	0.93
16	KIR3DX1	1	0.98	0.54	0.55
17	SYAP1	1	1.05	1.29	1.23
18	MSR1	1	0.89	0.66	0.74
19	SPINK7	1	0.94	0.34	0.36
20	CENPBD1P	1	1.06	1	0.94
21	SLC36A1	1	1.5	0.57	0.38
22	QTRT1	1	1.02	0.82	0.8
23	SPINK8	1	1.01	1	0.99
24	LTAP1	1	0.98	0.81	0.83
25	MAP3K13	1	0.88	0.73	0.83
26	SMIM8	1	1.04	0.58	0.56
27	TFDP2	1	1.1	1.06	0.96
28	IL9R	1	0.9	0.52	0.58
29	RFK	1	0.87	0.8	0.92
30	ZNF573	1	1.17	0.84	0.72
31	DUOX2	1	0.94	0.64	0.68
32	SLIRP-OT1	1	0.85	0.73	0.86
33	VPS35	1	0.72	0.68	0.94

The list goes on (4 carried over from the part before).
no.	Target gene	reagent no.	CDH1-null / parental viability ratio	CDH1-null viability vs mock (fraction of mock)	parental viability vs mock (fraction of mock)
30	ZNF573	1	1.17	0.84	0.72
31	DUOX2	1	0.94	0.64	0.68
32	SLIRP-OT1	1	0.85	0.73	0.86
33	VPS35	1	0.72	0.68	0.94
34	APOBEC3C	1	1	0.6	0.6
35	ORMDL3	1	1.13	0.97	0.86
36	MKRN1	1	0.93	0.7	0.75
37	CMKLR1	1	1.41	0.9	0.64
38	LINC02914	1	1	0.4	0.4
39	TST	1	1	0.66	0.66
40	GNAL	1	0.77	0.5	0.65
41	RBBP8	1	1	0.66	0.66
42	CHST4	1	0.91	0.82	0.9
43	CCDC198	1	0.67	0.47	0.7
44	FBXO31	1	0.83	0.65	0.78
45	BBLN	1	1.42	0.68	0.48
46	SAP18	1	0.73	0.64	0.88
47	CD44	1	1.15	0.94	0.82
48	GJA5	1	1.11	1.2	1.08
49	ALKBH6	1	0.93	0.84	0.9
50	RECQL	1	0.95	0.99	1.04
51	ZNF793	1	0.85	0.7	0.82
52	LZTR1	1	1.12	0.76	0.68
53	TRIM67	1	1.01	0.96	0.95
54	C19orf18	1	0.84	0.64	0.76
55	FBXL19	1	1.06	0.91	0.86
56	ZGRF1	1	0.72	0.36	0.5
57	ZGRF1	2	1.09	0.99	0.91
58	SORBS2	1	0.78	0.86	1.1
59	NOPCHAP1	1	1.04	1.04	1
60	ZNF343	1	0.89	0.85	0.95
61	HSPA12A	1	1.06	0.94	0.89
62	LLPH	1	1.28	0.64	0.5
63	P2RY4	1	0.88	0.76	0.86
64	RIC8B	1	1.04	0.88	0.85
65	PLS1	1	1.21	1.23	1.02
66	CKM	1	0.65	0.6	0.93
67	IL3	1	0.89	0.78	0.88
68	HRK	1	0.92	0.57	0.62
